Article PMC6557901, “Rif1 S-acylation mediates DNA double-strand break repair at the inner nuclear membrane”
Weaker means in comparison with the reference protein, sequence or condition of that experiment.

Chains of the proteins cited; added tags and fusions are not shown. Residues count along the entry.
UniProt P29539, 100-1322 K437E/K563E/K570E: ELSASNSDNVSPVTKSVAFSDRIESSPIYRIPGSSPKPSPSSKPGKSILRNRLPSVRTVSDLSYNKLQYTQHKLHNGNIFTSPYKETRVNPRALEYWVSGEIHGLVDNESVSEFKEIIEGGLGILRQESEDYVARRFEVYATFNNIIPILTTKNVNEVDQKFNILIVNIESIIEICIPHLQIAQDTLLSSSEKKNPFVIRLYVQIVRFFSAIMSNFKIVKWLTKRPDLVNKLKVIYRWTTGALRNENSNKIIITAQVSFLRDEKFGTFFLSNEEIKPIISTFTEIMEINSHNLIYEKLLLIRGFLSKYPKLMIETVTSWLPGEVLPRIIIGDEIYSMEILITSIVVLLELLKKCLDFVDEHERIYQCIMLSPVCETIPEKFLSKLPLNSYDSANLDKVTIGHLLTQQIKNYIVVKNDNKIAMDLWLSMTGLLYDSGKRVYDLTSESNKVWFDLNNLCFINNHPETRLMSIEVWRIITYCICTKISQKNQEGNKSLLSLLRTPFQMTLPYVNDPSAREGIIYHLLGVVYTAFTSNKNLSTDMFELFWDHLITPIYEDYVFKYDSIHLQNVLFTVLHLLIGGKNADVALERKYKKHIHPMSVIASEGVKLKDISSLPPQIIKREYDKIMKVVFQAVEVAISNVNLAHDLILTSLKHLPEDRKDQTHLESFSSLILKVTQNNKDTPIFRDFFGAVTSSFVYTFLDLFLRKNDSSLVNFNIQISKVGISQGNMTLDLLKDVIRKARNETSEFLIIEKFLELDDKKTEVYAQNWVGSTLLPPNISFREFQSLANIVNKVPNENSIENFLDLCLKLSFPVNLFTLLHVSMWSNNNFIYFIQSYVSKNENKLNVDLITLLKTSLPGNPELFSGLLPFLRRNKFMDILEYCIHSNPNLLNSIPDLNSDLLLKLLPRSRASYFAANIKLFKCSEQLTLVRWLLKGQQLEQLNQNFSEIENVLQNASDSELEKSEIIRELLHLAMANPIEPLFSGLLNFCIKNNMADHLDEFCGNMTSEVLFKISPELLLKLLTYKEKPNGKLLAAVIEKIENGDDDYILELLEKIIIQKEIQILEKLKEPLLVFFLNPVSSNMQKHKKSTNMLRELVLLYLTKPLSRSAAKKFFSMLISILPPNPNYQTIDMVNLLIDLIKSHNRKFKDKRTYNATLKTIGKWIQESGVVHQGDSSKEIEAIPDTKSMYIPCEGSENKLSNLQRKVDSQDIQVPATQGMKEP

Biological target: Rif1 NTD (100-1322) HOOK mutant K437E,K563E,K570E (Saccharomyces cerevisiae) (UniProt P29539)
Assay: EMSA
Conditions: protein 10-160 nM, DNA 1 nM, impaired, residual binding; 20 mM Tris-HCl pH 8.0, 100 mM NaCl, 2.5 mM MgCl2, 10 mM CaCl2, 0.1 mg/ml BSA, 1 mM TCEP, 30 min at 20 °C; 1.2% agarose gel, 0.5x TBE, 4 °C; recombinant protein; residues 100-1322; protein details: N-terminal Strep(II); label: 5'-32P on EMSA1

“TAGCAAGGCACTGGTAGAATTCGGCAGCGT (double strand) [30 bp dsDNA (EMSA1/EMSA2)]”: binds more weakly.
